Assay results as given in patent US7807844B2 (Nihon University, priority 2003, dated 2010).
Strings that start with PEPTIDE1 are HELM notation: dots part the residues, brackets hold end groups and non-standard residues.

Test: general procedure: Fmoc solid-phase peptide synthesis in flow; Fmoc-β-alanine-CLEAR acid resin, 0.50 meq/g (Peptide Institute); Fmoc-β-alanine-Wang resin; HATU/DIEA
Details: whole synthesis

For “PEPTIDE1{[FITC].[bAla].[Im].[Py].[Py].[bAla].[Im].[Py].[Py].[gAbu].[Py].[Py].[Py].[bAla].[Py].[Py].[bAla].[Dp]}$$$$V2.0”, the isolated mass was 7 mg and the isolated yield (scale of the general procedure 0.1 mmol) was 3%.
